The text below walks through data of article PMC5432348.

Amino acid sequences for entries named in this document (tags omitted). A change or cut given only in a name is not applied to a line headed by its entry. Residues count along the entry.
UniProt P21926: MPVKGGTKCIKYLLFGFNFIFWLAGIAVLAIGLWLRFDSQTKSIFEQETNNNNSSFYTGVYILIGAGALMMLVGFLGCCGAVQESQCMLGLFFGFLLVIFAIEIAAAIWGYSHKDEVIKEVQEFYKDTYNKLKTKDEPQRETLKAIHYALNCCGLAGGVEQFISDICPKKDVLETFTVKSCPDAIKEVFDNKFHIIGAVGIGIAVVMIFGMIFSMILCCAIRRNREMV
UniProt P31431, residues 19-198: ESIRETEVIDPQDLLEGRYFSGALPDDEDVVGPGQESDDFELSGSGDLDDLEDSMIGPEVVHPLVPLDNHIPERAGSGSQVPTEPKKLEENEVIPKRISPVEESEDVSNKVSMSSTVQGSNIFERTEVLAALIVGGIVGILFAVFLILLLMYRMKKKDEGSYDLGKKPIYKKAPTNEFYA
UniProt P05556: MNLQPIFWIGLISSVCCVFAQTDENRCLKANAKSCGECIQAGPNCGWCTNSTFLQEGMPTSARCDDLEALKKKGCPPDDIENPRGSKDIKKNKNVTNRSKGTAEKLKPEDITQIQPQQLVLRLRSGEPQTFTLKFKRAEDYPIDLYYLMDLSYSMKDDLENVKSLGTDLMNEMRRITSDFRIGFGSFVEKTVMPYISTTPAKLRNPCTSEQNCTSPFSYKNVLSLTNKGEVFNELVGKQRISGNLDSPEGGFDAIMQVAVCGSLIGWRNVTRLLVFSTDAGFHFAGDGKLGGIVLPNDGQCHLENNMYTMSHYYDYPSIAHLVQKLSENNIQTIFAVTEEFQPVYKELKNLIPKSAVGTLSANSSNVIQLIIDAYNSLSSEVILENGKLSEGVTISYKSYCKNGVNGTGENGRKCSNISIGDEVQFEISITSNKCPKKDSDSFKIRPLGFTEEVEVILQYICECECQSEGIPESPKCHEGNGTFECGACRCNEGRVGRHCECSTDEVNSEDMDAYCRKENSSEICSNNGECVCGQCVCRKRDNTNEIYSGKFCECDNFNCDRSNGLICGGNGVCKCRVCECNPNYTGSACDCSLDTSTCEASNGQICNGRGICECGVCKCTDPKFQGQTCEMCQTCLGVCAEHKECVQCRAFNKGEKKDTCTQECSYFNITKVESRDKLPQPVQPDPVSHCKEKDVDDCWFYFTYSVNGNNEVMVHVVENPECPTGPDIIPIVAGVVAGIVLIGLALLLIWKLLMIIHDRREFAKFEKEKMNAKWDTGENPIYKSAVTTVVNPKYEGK
UniProt P19440: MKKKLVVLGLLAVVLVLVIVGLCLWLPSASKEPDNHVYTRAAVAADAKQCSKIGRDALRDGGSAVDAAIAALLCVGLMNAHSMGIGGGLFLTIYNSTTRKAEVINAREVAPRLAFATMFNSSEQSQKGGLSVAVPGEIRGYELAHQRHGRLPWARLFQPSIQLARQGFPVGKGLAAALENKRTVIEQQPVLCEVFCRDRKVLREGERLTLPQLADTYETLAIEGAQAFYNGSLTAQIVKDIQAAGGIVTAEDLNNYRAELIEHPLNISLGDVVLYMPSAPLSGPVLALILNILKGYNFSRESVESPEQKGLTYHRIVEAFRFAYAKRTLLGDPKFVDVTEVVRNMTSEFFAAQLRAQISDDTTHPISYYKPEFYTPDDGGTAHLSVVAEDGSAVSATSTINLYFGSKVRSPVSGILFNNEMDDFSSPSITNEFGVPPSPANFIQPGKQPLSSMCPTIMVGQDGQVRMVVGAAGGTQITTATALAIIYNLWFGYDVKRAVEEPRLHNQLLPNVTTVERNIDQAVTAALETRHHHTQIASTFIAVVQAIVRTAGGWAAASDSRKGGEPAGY
UniProt Q9P273: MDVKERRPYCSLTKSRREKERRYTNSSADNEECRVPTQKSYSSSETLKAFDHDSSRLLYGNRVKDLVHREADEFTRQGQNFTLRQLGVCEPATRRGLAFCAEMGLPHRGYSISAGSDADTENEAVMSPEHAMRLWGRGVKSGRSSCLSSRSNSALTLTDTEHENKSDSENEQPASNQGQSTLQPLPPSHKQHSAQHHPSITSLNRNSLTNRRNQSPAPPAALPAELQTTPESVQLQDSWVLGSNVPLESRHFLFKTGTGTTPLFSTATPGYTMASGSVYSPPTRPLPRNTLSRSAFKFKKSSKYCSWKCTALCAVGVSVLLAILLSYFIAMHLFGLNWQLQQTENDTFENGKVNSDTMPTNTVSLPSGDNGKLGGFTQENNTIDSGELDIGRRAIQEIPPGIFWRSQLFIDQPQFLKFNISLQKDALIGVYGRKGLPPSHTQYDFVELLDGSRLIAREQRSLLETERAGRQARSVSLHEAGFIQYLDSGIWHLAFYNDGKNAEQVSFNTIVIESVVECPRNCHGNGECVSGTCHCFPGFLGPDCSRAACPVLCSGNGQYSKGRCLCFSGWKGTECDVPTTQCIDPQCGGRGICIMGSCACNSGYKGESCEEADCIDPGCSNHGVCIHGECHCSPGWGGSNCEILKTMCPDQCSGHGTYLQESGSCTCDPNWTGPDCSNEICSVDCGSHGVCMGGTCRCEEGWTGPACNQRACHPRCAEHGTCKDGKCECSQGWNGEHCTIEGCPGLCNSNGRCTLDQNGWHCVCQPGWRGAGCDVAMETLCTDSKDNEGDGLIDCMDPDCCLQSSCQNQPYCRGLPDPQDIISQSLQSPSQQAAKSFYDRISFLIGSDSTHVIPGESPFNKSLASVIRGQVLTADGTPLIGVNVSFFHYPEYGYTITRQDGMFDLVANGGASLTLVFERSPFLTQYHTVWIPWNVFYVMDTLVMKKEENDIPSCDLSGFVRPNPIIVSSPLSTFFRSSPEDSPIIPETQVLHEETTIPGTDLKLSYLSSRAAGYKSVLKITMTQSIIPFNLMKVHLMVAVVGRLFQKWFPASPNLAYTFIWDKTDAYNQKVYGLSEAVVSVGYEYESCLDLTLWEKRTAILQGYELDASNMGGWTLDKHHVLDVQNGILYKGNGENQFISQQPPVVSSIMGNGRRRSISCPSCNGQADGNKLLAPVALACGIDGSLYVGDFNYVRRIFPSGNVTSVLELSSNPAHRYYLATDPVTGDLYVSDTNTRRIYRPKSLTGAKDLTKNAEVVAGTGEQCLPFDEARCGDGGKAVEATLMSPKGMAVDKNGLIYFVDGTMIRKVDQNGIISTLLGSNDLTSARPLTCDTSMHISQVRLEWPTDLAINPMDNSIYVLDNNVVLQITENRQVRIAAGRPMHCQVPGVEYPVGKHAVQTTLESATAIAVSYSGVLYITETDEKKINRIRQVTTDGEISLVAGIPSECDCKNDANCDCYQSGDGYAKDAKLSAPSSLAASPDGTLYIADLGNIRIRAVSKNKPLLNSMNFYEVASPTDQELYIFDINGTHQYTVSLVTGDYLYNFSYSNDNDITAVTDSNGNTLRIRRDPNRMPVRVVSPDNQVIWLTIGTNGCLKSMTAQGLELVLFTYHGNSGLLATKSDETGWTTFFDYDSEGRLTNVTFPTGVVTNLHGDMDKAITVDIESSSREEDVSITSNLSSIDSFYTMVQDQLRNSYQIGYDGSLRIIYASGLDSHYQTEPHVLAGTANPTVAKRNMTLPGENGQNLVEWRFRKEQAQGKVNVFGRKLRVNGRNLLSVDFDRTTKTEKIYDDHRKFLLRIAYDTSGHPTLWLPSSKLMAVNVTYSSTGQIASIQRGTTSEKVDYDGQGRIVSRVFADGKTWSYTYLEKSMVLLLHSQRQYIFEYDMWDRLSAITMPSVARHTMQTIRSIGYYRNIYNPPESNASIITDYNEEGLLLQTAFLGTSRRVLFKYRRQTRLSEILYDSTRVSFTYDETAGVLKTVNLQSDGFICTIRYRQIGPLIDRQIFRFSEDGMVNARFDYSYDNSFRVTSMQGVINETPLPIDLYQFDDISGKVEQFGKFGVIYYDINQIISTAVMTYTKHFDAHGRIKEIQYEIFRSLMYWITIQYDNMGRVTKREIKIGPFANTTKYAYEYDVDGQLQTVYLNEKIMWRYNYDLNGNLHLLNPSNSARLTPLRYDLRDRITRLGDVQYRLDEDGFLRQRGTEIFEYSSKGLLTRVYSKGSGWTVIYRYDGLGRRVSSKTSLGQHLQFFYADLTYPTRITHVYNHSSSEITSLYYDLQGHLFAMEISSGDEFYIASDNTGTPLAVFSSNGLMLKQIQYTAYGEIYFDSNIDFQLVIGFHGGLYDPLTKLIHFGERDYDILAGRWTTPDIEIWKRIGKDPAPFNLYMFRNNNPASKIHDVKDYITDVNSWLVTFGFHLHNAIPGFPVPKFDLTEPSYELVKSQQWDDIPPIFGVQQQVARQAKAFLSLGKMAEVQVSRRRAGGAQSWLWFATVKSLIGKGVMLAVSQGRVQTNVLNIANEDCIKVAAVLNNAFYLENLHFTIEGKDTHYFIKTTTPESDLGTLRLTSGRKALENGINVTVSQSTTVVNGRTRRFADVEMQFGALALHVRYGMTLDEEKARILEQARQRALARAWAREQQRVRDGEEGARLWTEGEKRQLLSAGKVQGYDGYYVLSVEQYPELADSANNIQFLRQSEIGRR
UniProt P78536, residues 215-824: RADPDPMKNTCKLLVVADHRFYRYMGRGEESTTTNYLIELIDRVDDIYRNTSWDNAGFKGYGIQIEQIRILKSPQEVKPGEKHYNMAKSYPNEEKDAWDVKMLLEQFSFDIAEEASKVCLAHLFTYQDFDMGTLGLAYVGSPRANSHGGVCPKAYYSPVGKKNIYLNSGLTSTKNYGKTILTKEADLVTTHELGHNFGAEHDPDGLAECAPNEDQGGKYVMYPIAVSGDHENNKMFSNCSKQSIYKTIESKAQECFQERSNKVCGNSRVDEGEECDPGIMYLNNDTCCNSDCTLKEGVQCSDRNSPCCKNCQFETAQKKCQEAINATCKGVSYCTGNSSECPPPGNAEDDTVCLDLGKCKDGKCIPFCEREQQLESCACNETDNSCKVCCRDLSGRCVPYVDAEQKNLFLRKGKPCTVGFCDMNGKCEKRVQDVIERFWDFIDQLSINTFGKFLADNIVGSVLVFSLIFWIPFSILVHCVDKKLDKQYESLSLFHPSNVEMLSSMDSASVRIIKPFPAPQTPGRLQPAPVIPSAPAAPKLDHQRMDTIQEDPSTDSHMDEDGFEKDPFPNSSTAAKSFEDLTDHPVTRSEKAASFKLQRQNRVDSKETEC
UniProt P08962: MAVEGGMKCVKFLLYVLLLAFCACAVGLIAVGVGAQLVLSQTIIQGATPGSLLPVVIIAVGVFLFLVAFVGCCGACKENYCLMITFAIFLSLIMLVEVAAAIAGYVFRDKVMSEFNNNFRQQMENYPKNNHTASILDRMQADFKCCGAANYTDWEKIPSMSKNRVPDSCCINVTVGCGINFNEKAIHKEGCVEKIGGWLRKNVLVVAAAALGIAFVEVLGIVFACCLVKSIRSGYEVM
UniProt P15529, residues 35-392: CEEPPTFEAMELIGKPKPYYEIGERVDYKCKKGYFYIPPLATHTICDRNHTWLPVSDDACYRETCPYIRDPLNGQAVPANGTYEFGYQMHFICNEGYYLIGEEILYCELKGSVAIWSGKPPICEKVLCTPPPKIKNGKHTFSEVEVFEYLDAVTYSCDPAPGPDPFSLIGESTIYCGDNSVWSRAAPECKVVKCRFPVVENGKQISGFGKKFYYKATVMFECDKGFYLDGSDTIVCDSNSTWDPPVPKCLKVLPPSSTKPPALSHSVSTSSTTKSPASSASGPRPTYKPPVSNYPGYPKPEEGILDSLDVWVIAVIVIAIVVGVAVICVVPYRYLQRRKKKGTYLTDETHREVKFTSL
UniProt O95832: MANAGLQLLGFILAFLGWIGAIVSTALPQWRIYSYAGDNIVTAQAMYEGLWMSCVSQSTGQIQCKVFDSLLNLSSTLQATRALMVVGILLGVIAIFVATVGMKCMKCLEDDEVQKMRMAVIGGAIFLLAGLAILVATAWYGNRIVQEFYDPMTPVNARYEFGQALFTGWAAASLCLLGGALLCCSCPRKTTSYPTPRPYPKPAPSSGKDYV
UniProt Q03405, residues 23-305: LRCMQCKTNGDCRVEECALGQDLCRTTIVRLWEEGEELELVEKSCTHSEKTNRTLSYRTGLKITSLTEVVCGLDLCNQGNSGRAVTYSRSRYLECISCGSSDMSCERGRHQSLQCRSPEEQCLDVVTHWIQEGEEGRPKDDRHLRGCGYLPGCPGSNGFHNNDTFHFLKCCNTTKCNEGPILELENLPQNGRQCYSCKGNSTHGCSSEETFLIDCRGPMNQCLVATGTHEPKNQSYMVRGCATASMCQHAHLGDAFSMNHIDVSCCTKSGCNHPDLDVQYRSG
UniProt P32856: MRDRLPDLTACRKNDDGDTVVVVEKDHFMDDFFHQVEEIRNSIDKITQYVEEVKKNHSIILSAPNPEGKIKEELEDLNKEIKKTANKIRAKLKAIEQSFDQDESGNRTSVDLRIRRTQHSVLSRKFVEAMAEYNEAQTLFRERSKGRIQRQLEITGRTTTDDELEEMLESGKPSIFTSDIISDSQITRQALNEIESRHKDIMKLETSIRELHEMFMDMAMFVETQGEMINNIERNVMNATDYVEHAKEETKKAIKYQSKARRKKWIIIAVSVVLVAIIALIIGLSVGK

The target of assay [1] is T1, tetraspanin Co-029/tspan8 (UniProt P19075).
T1 sequence: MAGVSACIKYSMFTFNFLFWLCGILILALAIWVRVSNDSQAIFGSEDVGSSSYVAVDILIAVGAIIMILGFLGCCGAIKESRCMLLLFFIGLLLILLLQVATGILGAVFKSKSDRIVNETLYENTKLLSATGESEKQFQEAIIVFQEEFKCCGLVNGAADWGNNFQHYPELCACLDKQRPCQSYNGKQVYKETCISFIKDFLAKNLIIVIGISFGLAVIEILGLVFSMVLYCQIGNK
Briefly: affinity purification with mass spectrometry; 1% Brij97 lysates of Isreco1 and Is1-Co029 cells cultured on collagen I (also on tissue culture plastic); beads coupled to mAb Ts9 (CD9) or TS29.2 (Co-029); SDS-PAGE, in-gel trypsin digestion, LC-MS/MS.

For assay [2], the target named is CD9 (human (endogenous in Isreco1)) (UniProt P21926). The description is as above.

Results are given in words; binding and its absence hold for the method and conditions named. In cells and extracts the contact can be indirect. These calls come from enrichment with a bait or labelling near it, and not all partners need be listed.

PCDH1 (from UniProt Q08174 58-1060): the binding result in assay [1] and in assay [2] was “binds” throughout.
Take GPR126 (human (endogenous in Isreco1)): the binding result in assay [1] was “binds”.
As to SDC4 (from UniProt P31431 19-198), the binding entry in assay [1] and in assay [2] was “binds” in each case.
Turning to ITGB1 (from UniProt P05556 21-798), the binding entry in assay [1] and in assay [2] was “binds” in each case.
Consider GGT1 (from UniProt P19440 1-569), for which the binding result in assay [1] and in assay [2] was “binds” in each case.
GPR110 (human (endogenous in Isreco1)): the binding result in assay [1] is recorded as “binds”.
Regarding TENM3 (from UniProt Q9P273 1-2699), the binding result in assay [1] and in assay [2] was “binds” each time.
For ADAM17 (from UniProt P78536 215-824), the binding result in assay [1] is “binds”.
On to CD63 (from UniProt P08962 1-238), for which the binding result in assay [1] and in assay [2] was “binds” in each case.
For CD46 (from UniProt P15529 35-392), the binding entry in assay [1] and in assay [2] was “binds” in each case.
Take PLSCR3 (from UniProt Q9NRY6 1-295): the binding result in assay [1] and in assay [2] was “binds” in each case.
For the molecule SLC3A2 (from UniProt P08195 1-529), the binding result in assay [1] and in assay [2] was “binds” each time.
Consider CLDN1 (from UniProt O95832 1-211), for which the binding entry in assay [1] and in assay [2] was “binds” each time.
Take ATP1B3 (from UniProt P54709 1-279): the binding result in assay [1] and in assay [2] was “binds” in each case.
On to ADAM10 (from UniProt O14672 214-748), for which the binding entry in assay [1] is reported as “binds”.
Still for that read-out and setting: as for GPR56 (human (endogenous in Isreco1)), the entry is “binds”.
Regarding MCAM (from UniProt P43121 24-646), the binding entry in assay [1] and in assay [2] was “binds” each time.
For the molecule PLAUR (from UniProt Q03405 23-305), the binding result in assay [1] and in assay [2] was “binds” throughout.
With CD9 (from UniProt P21926 1-228), the binding entry in assay [1] is given as “binds”.
Regarding LDLR (from UniProt P01130 22-860), the binding result in assay [1] and in assay [2] was “binds” each time.
With ITGA6 (human (endogenous in Isreco1)), the binding result in assay [1] is given as “binds”.
For CDCP1 (from UniProt Q9H5V8 30-836), the binding result in assay [1] and in assay [2] was “binds” throughout.
With L1CAM (from UniProt P32004 20-1257), the binding result in assay [1] and in assay [2] was “binds” throughout.
As for CD97 (human (endogenous in Isreco1)), the binding entry in assay [1] is “binds”.
In the case of NOTCH2 (human (endogenous in Isreco1)), the binding entry in assay [1] is given as “binds”.
For the molecule “E-cadherin (human (endogenous in Isreco1))”, the binding entry in assay [1] is on record as “binds”.
Still for that read-out and setting: the entry for ITGA3 (human (endogenous in Isreco1)) is “binds”.
As to STX2 (from UniProt P32856 1-288), the binding entry in assay [1] and in assay [2] was “binds” each time.
Consider BSG (from UniProt P35613-2), for which, in assay [1], the binding entry was “binds”.

B1: IGSF8 (protein, UniProt Q969P0 28-613)
chain: REVLVPEGPLYRVAGTAVSISCNVTGYEGPAQQNFEWFLYRPEAPDTALGIVSTKDTQFSYAVFKSRVVAGEVQVQRLQGDAVVLKIARLQAQDAGIYECHTPSTDTRYLGSYSGKVELRVLPDVLQVSAAPPGPRGRQAPTSPPRMTVHEGQELALGCLARTSTQKHTHLAVSFGRSVPEAPVGRSTLQEVVGIRSDLAVEAGAPYAERLAAGELRLGKEGTDRYRMVVGGAQAGDAGTYHCTAAEWIQDPDGSWAQIAEKRAVLAHVDVQTLSSQLAVTVGPGERRIGPGEPLELLCNVSGALPPAGRHAAYSVGWEMAPAGAPGPGRLVAQLDTEGVGSLGPGYEGRHIAMEKVASRTYRLRLEAARPGDAGTYRCLAKAYVRGSGTRLREAASARSRPLPVHVREEGVVLEAVAWLAGGTVYRGETASLLCNISVRGGPPGLRLAASWWVERPEDGELSSVPAQLVGGVGQDGVAELGVRPGGGPVSVELVGPRSHRLRLHSLGPEDEGVYHCAPSAWVQHADYSWYQAGSARSGPVTVYPYMHALDTLFVPLLVGTGVALVTGATVLGTITCCFMKRLRKR
B1: the binding entry in assay [1] was “binds”.

B2: SLC44A1 (protein, UniProt Q8WWI5 1-657)
chain: MGCCSSASSAAQSSKREWKPLEDRSCTDIPWLLLFILFCIGMGFICGFSIATGAAARLVSGYDSYGNICGQKNTKLEAIPNSGMDHTQRKYVFFLDPCNLDLINRKIKSVALCVAACPRQELKTLSDVQKFAEINGSALCSYNLKPSEYTTSPKSSVLCPKLPVPASAPIPFFHRCAPVNISCYAKFAEALITFVSDNSVLHRLISGVMTSKEIILGLCLLSLVLSMILMVIIRYISRVLVWILTILVILGSLGGTGVLWWLYAKQRRSPKETVTPEQLQIAEDNLRALLIYAISATVFTVILFLIMLVMRKRVALTIALFHVAGKVFIHLPLLVFQPFWTFFALVLFWVYWIMTLLFLGTTGSPVQNEQGFVEFKISGPLQYMWWYHVVGLIWISEFILACQQMTVAGAVVTYYFTRDKRNLPFTPILASVNRLIRYHLGTVAKGSFIITLVKIPRMILMYIHSQLKGKENACARCVLKSCICCLWCLEKCLNYLNQNAYTATAINSTNFCTSAKDAFVILVENALRVATINTVGDFMLFLGKVLIVCSTGLAGIMLLNYQQDYTVWVLPLIIVCLFAFLVAHCFLSIYEMVVDVLFLCFAIDTKYNDGSPGREFYMDKVLMEFVENSRKAMKEAGKGGVADSRELKPMASGASSA
As to B2, the binding result in assay [1] and in assay [2] was “binds” in each case.

B3: EPCAM (protein, UniProt P16422 24-314)
chain: QEECVCENYKLAVNCFVNNNRQCQCTSVGAQNTVICSKLAAKCLVMKAEMNGSKLGRRAKPEGALQNNDGLYDPDCDESGLFKAKQCNGTSMCWCVNTAGVRRTDKDTEITCSERVRTYWIIIELKHKAREKPYDSKSLRTALQKEITTRYQLDPKFITSILYENNVITIDLVQNSSQKTQNDVDIADVAYYFEKDVKGESLFHSKKMDLTVNGEQLDLDPGQTLIYYVDEKAPEFSMQGLKAGVIAVIVVVVIAVVAGIVVLVISRKKRMAKYEKAEIKEMGEMHRELNA
In the case of B3, the binding result in assay [1] and in assay [2] was “binds” throughout.

B4: PTGFRN (protein, UniProt Q9P2B2 26-879)
chain: VPTATLVRVVGTELVIPCNVSDYDGPSEQNFDWSFSSLGSSFVELASTWEVGFPAQLYQERLQRGEILLRRTANDAVELHIKNVQPSDQGHYKCSTPSTDATVQGNYEDTVQVKVLADSLHVGPSARPPPSLSLREGEPFELRCTAASASPLHTHLALLWEVHRGPARRSVLALTHEGRFHPGLGYEQRYHSGDVRLDTVGSDAYRLSVSRALSADQGSYRCIVSEWIAEQGNWQEIQEKAVEVATVVIQPSVLRAAVPKNVSVAEGKELDLTCNITTDRADDVRPEVTWSFSRMPDSTLPGSRVLARLDRDSLVHSSPHVALSHVDARSYHLLVRDVSKENSGYYYCHVSLWAPGHNRSWHKVAEAVSSPAGVGVTWLEPDYQVYLNASKVPGFADDPTELACRVVDTKSGEANVRFTVSWYYRMNRRSDNVVTSELLAVMDGDWTLKYGERSKQRAQDGDFIFSKEHTDTFNFRIQRTTEEDRGNYYCVVSAWTKQRNNSWVKSKDVFSKPVNIFWALEDSVLVVKARQPKPFFAAGNTFEMTCKVSSKNIKSPRYSVLIMAEKPVGDLSSPNETKYIISLDQDSVVKLENWTDASRVDGVVLEKVQEDEFRYRMYQTQVSDAGLYRCMVTAWSPVRGSLWREAATSLSNPIEIDFQTSGPIFNASVHSDTPSVIRGDLIKLFCIITVEGAALDPDDMAFDVSWFAVHSFGLDKAPVLLSSLDRKGIVTTSRRDWKSDLSLERVSVLEFLLQVHGSEDQDFGNYYCSVTPWVKSPTGSWQKEAEIHSKPVFITVKMDVLNAFKYPLLIGVGLSTVIGLLSCLIGYCSSHWCCKKEVQETRRERRRLMSMEMD
On to B4, for which, in assay [1], the binding entry is reported as “binds”.

B5: CD81 (protein, UniProt P60033 1-236)
chain: MGVEGCTKCIKYLLFVFNFVFWLAGGVILGVALWLRHDPQTTNLLYLELGDKPAPNTFYVGIYILIAVGAVMMFVGFLGCYGAIQESQCLLGTFFTCLVILFACEVAAGIWGFVNKDQIAKDVKQFYDQALQQAVVDDDANNAKAVVKTFHETLDCCGSSTLTALTTSVLKNNLCPSGSNIISNLFKEDCHQKIDDLFSGKLYLIGIAAIVVAVIMIFEMILSMVLCCGIRNSSVY
B5: the binding result in assay [1] is on record as “binds”.

B6: tetraspanin Co-029/tspan8 (protein, UniProt P19075 1-237)
chain: T1 sequence
As for B6, the binding entry in assay [2] is listed as “binds”.

B7: LMAN2 (protein, UniProt Q12907 45-356)
chain: DITDGNSEHLKREHSLIKPYQGVGSSSMPLWDFQGSTMLTSQYVRLTPDERSKEGSIWNHQPCFLKDWEMHVHFKVHGTGKKNLHGDGIALWYTRDRLVPGPVFGSKDNFHGLAIFLDTYPNDETTERVFPYISVMVNNGSLSYDHSKDGRWTELAGCTADFRNRDHDTFLAVRYSRGRLTVMTDLEDKNEWKNCIDITGVRLPTGYYFGASAGTGDLSDNHDIISMKLFQLMVEHTPDEESIDWTKIEPSVNFLKSPKDNVDDPTGNFRSGPLTGWRVFLLLLCALLGIVVCAVVGAVVFQKRQERNKRFY
As for B7, the binding entry in assay [1] and in assay [2] was “binds” throughout.
